Experimental findings from PMC3459987 are described below.

Chains of the proteins cited; added tags and fusions are not shown.
UniProt P0DP91: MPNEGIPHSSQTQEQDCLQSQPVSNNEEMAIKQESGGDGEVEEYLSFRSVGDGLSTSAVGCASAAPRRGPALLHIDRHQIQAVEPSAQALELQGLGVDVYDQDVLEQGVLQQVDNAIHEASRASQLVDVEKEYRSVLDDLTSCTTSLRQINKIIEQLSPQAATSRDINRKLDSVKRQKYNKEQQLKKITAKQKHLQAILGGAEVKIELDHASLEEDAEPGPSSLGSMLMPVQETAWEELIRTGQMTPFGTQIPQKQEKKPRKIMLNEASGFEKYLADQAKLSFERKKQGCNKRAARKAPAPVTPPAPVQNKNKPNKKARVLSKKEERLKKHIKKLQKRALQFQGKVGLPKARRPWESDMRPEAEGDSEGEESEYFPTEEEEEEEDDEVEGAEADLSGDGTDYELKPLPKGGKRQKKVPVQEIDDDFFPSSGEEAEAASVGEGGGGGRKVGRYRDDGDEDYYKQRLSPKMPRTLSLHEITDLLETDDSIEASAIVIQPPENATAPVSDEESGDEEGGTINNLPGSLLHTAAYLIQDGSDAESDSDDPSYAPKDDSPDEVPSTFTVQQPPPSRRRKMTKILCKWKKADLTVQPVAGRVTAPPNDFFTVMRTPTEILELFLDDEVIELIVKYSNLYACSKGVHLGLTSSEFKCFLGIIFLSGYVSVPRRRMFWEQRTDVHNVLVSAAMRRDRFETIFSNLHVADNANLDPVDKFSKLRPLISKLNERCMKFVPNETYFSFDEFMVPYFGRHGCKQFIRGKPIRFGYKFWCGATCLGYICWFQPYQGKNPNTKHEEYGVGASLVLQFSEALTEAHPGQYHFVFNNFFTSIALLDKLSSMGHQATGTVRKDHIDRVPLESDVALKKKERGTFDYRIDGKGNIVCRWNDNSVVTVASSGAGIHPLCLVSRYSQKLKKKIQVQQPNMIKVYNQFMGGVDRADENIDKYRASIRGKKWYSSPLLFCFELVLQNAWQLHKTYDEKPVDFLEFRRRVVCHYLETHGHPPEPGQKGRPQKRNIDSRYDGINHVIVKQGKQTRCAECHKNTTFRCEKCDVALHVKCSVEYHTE

These are yes or no findings as the source states them, for the method shown. In cells and extracts the contact can be indirect. Some entries that bind do so weakly or less than the wild type.

Experiment in all cases: co-IP; nuclear lysates of UVSS1KO cells stably expressing FLAG-HA-tagged proteins; IP with anti-FLAG, anti-c-Jun or nonspecific antibody in IP50 buffer (10 mM TrisHCl, 50 mM KCl, 0.1 mM EDTA, 10% glycerol), Protein G Dynabeads; Western blot with anti-c-Jun or anti-FLAG
In general terms: A western blot detects proteins with antibodies after separation by electrophoresis.

Experiment [1] concerns the target c-Jun (human (endogenous in UVSS1KO)) (UniProt P05412).
Experiment [2] concerns the target FLAG-HA-tagged CSB-PGBD3 fusion protein (human) (UniProt P0DP91).
The target of experiment [3] is FLAG-HA-tagged full-length CSB (human), Q03468. Conditions: remark: other sources report otherwise.

On to “FLAG-HA-tagged CSB-PGBD3 fusion protein (from UniProt P0DP91 1-1061)”, for which the binding entry in experiment [1] is given as “binds”.
For c-Jun (from UniProt P05412 1-331), the binding entry in experiment [2] was “binds”.

B1: c-Jun, P05412 1-331 (protein)
chain: MTAKMETTFYDDALNASFLPSESGPYGYSNPKILKQSMTLNLADPVGSLKPHLRAKNSDLLTSPDVGLLKLASPELERLIIQSSNGHITTTPTPTQFLCPKNVTDEQEGFAEGFVRALAELHSQNTLPSVTSAAQPVNGAGMVAPAVASVAGGSGSGGFSASLHSEPPVYANLSNFNPGALSSGGGAPSYGAAGLAFPAQPQQQQQPPHHLPQQMPVQHPRLQALKEEPQTVPEMPGETPPLSPIDMESQERIKAERKRMRNRIAASKCRKRKLERIARLEEKVKTLKAQNSELASTANMLREQVAQLKQKVMNHVNSGCQLMLTQQLQTF
For B1, the binding result in experiment [3] is on record as “no binding”.
